# In article PMC8308721 (Pharmaceutics, 2021):
# Experiment: general procedure: solution-phase peptide synthesis
substance,measurement,setting,value
Methyl (tert-butoxycarbonyl)glycylglycyl-L-phenylalanyl-L-leucinate,step yield,coupling step,81.1%
Methyl glycylglycyl-L-phenylalanyl-L-leucinate,step yield,late stage modification step,90.6%
